# Screening data, single-dose tests

Each number is a percent effect as filed. The controls that fix the scale are not given in the record; negative values are as filed. The compounds are a random part of those screened.

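Whole-parasite assay of Trypanosoma brucei over 72 hours; the read-out is not stated. Compounds at 30 µM. The record gives no direction; compounds that gave an IC50 in retests scored well above the rest, so higher reads as stronger inhibition. Values scatter widely below zero; nearly all retest evidence comes from the higher of the two concentrations used. Size under these conditions: about 64,000 compounds, about 940 of them at 50% or above in at least one test.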

{"compound": "O=C(Cc1csc(Cc2ccccn2)n1)NCCCN1CCCC1=O", "effect": -80.71}
{"compound": "Cc1ccc(C(=O)N2CCC3(CCN(Cc4ccccn4)C3=O)C2)cn1", "stereo": "stereo not shown", "effect": -42.53}
{"compound": "c1ccc2c3c([nH]c2c1)C(c1nn[nH]n1)CCC3", "stereo": "stereo not shown", "effect": -15.19}
{"compound": "Cl.O=C(NC[C@@]1(COc2cnccn2)C[C@@H](O)[C@@H](O)C1)C1CC1", "effect": -44.75}
{"compound": "CCc1nc(C2CCCN2CC(=O)Nc2nnc(C)s2)no1", "stereo": "stereo not shown", "effect": -3.245}
{"compound": "COCC1CCN(C(=O)c2cn(Cc3cccc(C(F)(F)F)c3)nn2)C1", "stereo": "stereo not shown", "effect": -3.797}
{"compound": "[H][C@]12CCN(C(=O)NCCc3ccccc3)CC[C@@]1([H])S(=O)(=O)NC2", "effect": -25.29}
{"compound": "CN(C)c1ccc(-c2noc([C@@H]3CCCN3)n2)cn1", "effect": -32.7}
{"compound": "CC(=O)N1CCC2(CC1)C(=O)N(CC1CC1)c1ccccc12", "effect": 10.23}
{"compound": "O=C(O)C(F)(F)F.OCCN1CCOC2(CCCN(c3cccc(F)c3)C2)C1", "stereo": "stereo not shown", "effect": 21.19}
{"compound": "CC(=O)NCCC(=O)NCCCOc1c(C)cccc1C", "effect": -14.98}
{"compound": "CN(CC1=CCCN(CCc2ccccn2)C1)C(=O)c1ccco1", "effect": -29.87}
{"compound": "Cn1cc(CN2CCC3(CC2)CC(Nc2nccs2)CO3)cn1.O=C(O)C(F)(F)F", "stereo": "stereo not shown", "effect": -1061}
{"compound": "COCCNC(=O)CN(C)CCn1nc2ccccn2c1=O", "effect": -28.32}
{"compound": "Cc1cccc2c1nc(CCO)n2-c1ccc(NS(C)(=O)=O)nc1", "effect": -8.619}
{"compound": "Cn1nccc1CN1CCOC(c2ccc(-c3cncnc3)cn2)C1", "stereo": "stereo not shown", "effect": 1.674}
{"compound": "O=C(O)C(F)(F)F.O=C(c1ccncc1)N1CCOC2(CCCN(c3nncs3)C2)C1", "stereo": "stereo not shown", "effect": -64.64}
{"compound": "Cc1nc(CNC(C(=O)N2CCOCC2)c2ccccc2)cs1", "stereo": "stereo not shown", "effect": -16.57}
{"compound": "O=C(NCC1CC[C@@]2(CNCCOC2)O1)c1cnccn1", "stereo": "stereo partly shown", "effect": -79.35}
{"compound": "COc1ccccc1CC1CCCN(CC(=O)NC2CC2)C1", "stereo": "stereo not shown", "effect": 6.426}
{"compound": "CC(C)CCC(=O)Nc1ccc2oc(=O)n(CCN(C)C)c2c1", "effect": 2.351}
{"compound": "N#Cc1ccc(NCCCN2C(=O)COc3ccccc32)nc1", "effect": -15.15}
{"compound": "CS(=O)(=O)CCCC(=O)Nc1cc(-c2cccc(F)c2F)n[nH]1", "effect": -25.65}
{"compound": "[H][C@@]12CN(CC3CCCC3)C[C@]1([H])OCCN2c1cnccn1", "effect": -56.45}
{"compound": "CC(C)c1noc(CS(=O)(=O)CC(=O)NCC(F)(F)F)n1", "effect": -15.01}
{"compound": "CC(C)N1CCCC1c1cc(CCO)[nH]n1", "stereo": "stereo not shown", "effect": 14.52}
{"compound": "Cn1c(Cn2ccnc2)nnc1C1CCN(C(=O)C2(C)CC2)CC1", "effect": -21.26}
{"compound": "CCCn1nc(C)c(CNC(=O)C2COc3c(cccc3OC)C2)c1C", "stereo": "stereo not shown", "effect": 9.645}
{"compound": "O=S(=O)(CCN1CCN(c2ccccc2O)CC1)c1ccc(Cl)cc1", "effect": -5.375}
{"compound": "CC(C)CS(=O)(=O)NC(=O)c1ccc2c(c1)ncn2C", "effect": 2.935}
{"compound": "CCOC(=O)C1(NCC(=O)Nc2cc(C)ccc2OC)CCCC1", "effect": -14.79}
{"compound": "O=C(c1c(O)cnc2ccccc12)N1CCN(CC(F)F)CC1", "effect": -14.19}
{"compound": "Cc1ncsc1CCN(C)Cc1ccc(CO)o1", "effect": -67.76}
{"compound": "COc1ccc(C2CC(=O)c3c(O)cc(O)cc3O2)cc1O", "stereo": "stereo not shown", "effect": -22.63}
{"compound": "Clc1cccnc1N1CCC(NCc2cccc3cn[nH]c23)C1", "stereo": "stereo not shown", "effect": 15.01}
{"compound": "CCC(CC)C(=O)N1CCC2(C1)CN(c1ccccc1)C(=O)CN2C.O=C(O)C(F)(F)F", "stereo": "stereo not shown", "effect": -17.57}
{"compound": "CC/C=C(/C)C(=O)NS(=O)(=O)c1ccc(C#N)cc1C(F)(F)F", "effect": -53.38}
{"compound": "CC(C)S(=O)(=O)CC(=O)NCC(Cc1ccc(F)cc1)C(N)=O", "stereo": "stereo not shown", "effect": -12.54}

2 of the entries, repeated:

compound,effect
CN(CC1=CCCN(CCc2ccccn2)C1)C(=O)c1ccco1,-29.87%
O=C(NCC1CC[C@@]2(CNCCOC2)O1)c1cnccn1 (stereo partly shown),-79.35%

The values are deposited in ChEMBL (CHEMBL3988442, “University of Dundee, Small-Polar-MMV Screening Library” (2021)).